# Results taken from the supplement of paper PMC8728848.
# The other results are listed elsewhere or left out.
# B1: Clec39 (Caenorhabditis elegans) (protein)
# chain: MTSFYDNSSSSSKPVPLKTSRAQKIQILIFDNWKLILYGAISTLILVLAIMFSTLFFALPAANCDENSEPTKYYTTNAEITTTITTTNQKTTSTASSHLTTISSSATQIYSESSSSSTSQSTFTQSPPEISTTTIAPSDFSCQHGFTLVNNKCWKLVTSNQARPDADKICNGYGGATLFSIKSEQDNRAMIHFVKGQDIDFLWSGLLCSAGEPISCIWDIENGSTANYSNFADGFPNIVYGNCVYFITSGDEAGQWGNEQCGQVMNFVCELPATFQGKDGCKNNYEKSCYLRFDLNLTVPQAQNFCLEKCANLVSIHSANEVRFIMTIYDFIGEILIGALAPAQDFIYWLDGTPANYNNLKFFYNSTCVHMTVAPGMQNVGKWFTRFCTETGKFLCKRSIKNSCT
# Key:
# Test in all cases: glycan array binding signal (z-score within array); higher = stronger binding
# Settings in all cases: glycan notation: IUPAC condensed, linker removed
# [1] = biological target: Fuc(a1-2)Gal(b1-4)[Fuc(a1-3)]GlcNAc(b1-2)Man(a1-3)[Fuc(a1-2)Gal(b1-4)[Fuc(a1-3)]GlcNAc(b1-2)Man(a1-6)]Man(b1-4)GlcNAc(b1-4)[Fuc(a1-6)]GlcNAc
# Summary of the method: (§1)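 The Consortium for Functional Glycomics database supplied 3228 glycan arrays, of which those lacking an available protein sequence were dropped. The binding signal, a within-array Z-score, was averaged across arrays of the same protein sequence and across linkers. Negative scores can be read as non-binding.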
# [2] = biological target: Fuc(a1-2)Gal(b1-4)[Fuc(a1-3)]GlcNAc(b1-2)[Fuc(a1-2)Gal(b1-4)[Fuc(a1-3)]GlcNAc(b1-4)]Man(a1-3)[Fuc(a1-2)Gal(b1-4)[Fuc(a1-3)]GlcNAc(b1-2)Man(a1-6)]Man(b1-4)GlcNAc(b1-4)GlcNAc
# Summary of the method: as §1
# [3] = biological target: Fuc(a1-2)Gal(b1-4)[Fuc(a1-3)]GlcNAc(b1-3)Gal(b1-4)[Fuc(a1-3)]GlcNAc
# Summary of the method: as §1
# [4] = biological target: Fuc(a1-2)Gal(b1-4)[Fuc(a1-3)]GlcNAc(b1-3)Gal(b1-4)[Fuc(a1-3)]GlcNAc(b1-3)Gal(b1-4)[Fuc(a1-3)]GlcNAc
# Summary of the method: as §1
# [5] = biological target: Fuc(a1-2)Gal(b1-4)[Fuc(a1-3)]GlcNAc(b1-3)GalNAc
# Summary of the method: as §1
# [6] = biological target: Fuc(a1-2)Gal(b1-4)[Fuc(a1-3)]GlcNAc(b1-3)[Neu5Ac(a2-6)Gal(b1-4)GlcNAc(b1-6)]Gal(b1-4)Glc
# Summary of the method: as §1
# [7] = biological target: Fuc(a1-2)Gal3S(b1-4)GlcNAc
# Summary of the method: as §1
# [8] = biological target: Fuc(a1-2)Gal6S(b1-3)GlcNAc
# Summary of the method: as §1
# [9] = biological target: Fuc(a1-2)Gal6S(b1-3)GlcNAc6S
# Summary of the method: as §1
# [10] = biological target: Fuc(a1-2)Gal6S(b1-4)Glc
# Summary of the method: as §1
# [11] = biological target: Fuc(a1-2)Gal6S(b1-4)Glc6S
# Summary of the method: as §1
# [12] = biological target: Fuc(a1-2)[Gal(a1-3)]Gal
# Summary of the method: as §1
# [13] = biological target: Fuc(a1-2)[Gal(a1-3)]Gal(b1-3)GalNAc
# Summary of the method: as §1
# [14] = biological target: Fuc(a1-2)[Gal(a1-3)]Gal(b1-3)GalNAc(b1-3)Gal(a1-4)Gal(b1-4)Glc
# Summary of the method: as §1
# [15] = biological target: Fuc(a1-2)[Gal(a1-3)]Gal(b1-3)GlcNAc
# Summary of the method: as §1
# [16] = biological target: Fuc(a1-2)[Gal(a1-3)]Gal(b1-3)GlcNAc(b1-2)Man(a1-3)[Fuc(a1-2)[Gal(a1-3)]Gal(b1-3)GlcNAc(b1-2)Man(a1-6)]Man(b1-4)GlcNAc(b1-4)GlcNAc
# Summary of the method: as §1
# [17] = biological target: Fuc(a1-2)[Gal(a1-3)]Gal(b1-3)GlcNAc(b1-2)Man(a1-3)[Fuc(a1-2)[Gal(a1-3)]Gal(b1-3)GlcNAc(b1-2)Man(a1-6)]Man(b1-4)GlcNAc(b1-4)[Fuc(a1-6)]GlcNAc
# Summary of the method: as §1
# [18] = biological target: Fuc(a1-2)[Gal(a1-3)]Gal(b1-3)GlcNAc(b1-3)GalNAc
# Summary of the method: as §1
# [19] = biological target: Fuc(a1-2)[Gal(a1-3)]Gal(b1-3)GlcNAc(b1-6)GalNAc
# Summary of the method: as §1
# [20] = biological target: Fuc(a1-2)[Gal(a1-3)]Gal(b1-4)Glc
# Summary of the method: as §1
# [21] = biological target: Fuc(a1-2)[Gal(a1-3)]Gal(b1-4)GlcNAc
# Summary of the method: as §1
# [22] = biological target: Fuc(a1-2)[Gal(a1-3)]Gal(b1-4)GlcNAc(b1-2)Man
# Summary of the method: as §1
# [23] = biological target: Fuc(a1-2)[Gal(a1-3)]Gal(b1-4)GlcNAc(b1-2)Man(a1-3)[Fuc(a1-2)[Gal(a1-3)]Gal(b1-4)GlcNAc(b1-2)Man(a1-6)]Man(b1-4)GlcNAc(b1-4)GlcNAc
# Summary of the method: as §1
# [24] = biological target: Fuc(a1-2)[Gal(a1-3)]Gal(b1-4)GlcNAc(b1-2)Man(a1-3)[Fuc(a1-2)[Gal(a1-3)]Gal(b1-4)GlcNAc(b1-2)Man(a1-6)]Man(b1-4)GlcNAc(b1-4)[Fuc(a1-6)]GlcNAc
# Summary of the method: as §1
# [25] = biological target: Fuc(a1-2)[Gal(a1-3)]Gal(b1-4)GlcNAc(b1-3)GalNAc
# Summary of the method: as §1
# [26] = biological target: Fuc(a1-2)[Gal(a1-3)]Gal(b1-4)GlcNAc(b1-3)[Fuc(a1-2)[Gal(a1-3)]Gal(b1-4)GlcNAc(b1-6)]GalNAc
# Summary of the method: as §1
# [27] = biological target: Fuc(a1-2)[Gal(a1-3)]Gal(b1-4)GlcNAc(b1-6)GalNAc
# Summary of the method: as §1
# [28] = biological target: Fuc(a1-2)[Gal(a1-3)]Gal(b1-4)[Fuc(a1-3)]Glc
# Summary of the method: as §1
# [29] = biological target: Fuc(a1-2)[Gal(a1-3)]Gal(b1-4)[Fuc(a1-3)]GlcNAc
# Summary of the method: as §1
# [30] = biological target: Fuc(a1-2)[Gal(a1-3)]Gal(b1-4)[Fuc(a1-3)]GlcNAc(b1-3)GalNAc
# Summary of the method: as §1
# [31] = biological target: Fuc(a1-2)[Gal(a1-4)]Gal(b1-4)GlcNAc
# Summary of the method: as §1
# [32] = biological target: Fuc(a1-2)[GalNAc(a1-3)]Gal
# Summary of the method: as §1
# [33] = biological target: Fuc(a1-2)[GalNAc(a1-3)]Gal(b1-3)GalNAc(a1-3)[Fuc(a1-2)]Gal(b1-4)GlcNAc
# Summary of the method: as §1
# [34] = biological target: Fuc(a1-2)[GalNAc(a1-3)]Gal(b1-3)GalNAc(b1-3)Gal(a1-4)Gal(b1-4)Glc
# Summary of the method: as §1
# [35] = biological target: Fuc(a1-2)[GalNAc(a1-3)]Gal(b1-3)GlcNAc
# Summary of the method: as §1
# [36] = biological target: Fuc(a1-2)[GalNAc(a1-3)]Gal(b1-3)GlcNAc(b1-2)Man(a1-3)[Fuc(a1-2)[GalNAc(a1-3)]Gal(b1-3)GlcNAc(b1-2)Man(a1-6)]Man(b1-4)GlcNAc(b1-4)GlcNAc
# Summary of the method: as §1
# [37] = biological target: Fuc(a1-2)[GalNAc(a1-3)]Gal(b1-3)GlcNAc(b1-2)Man(a1-3)[Fuc(a1-2)[GalNAc(a1-3)]Gal(b1-3)GlcNAc(b1-2)Man(a1-6)]Man(b1-4)GlcNAc(b1-4)[Fuc(a1-6)]GlcNAc
# Summary of the method: as §1
# [38] = biological target: Fuc(a1-2)[GalNAc(a1-3)]Gal(b1-3)GlcNAc(b1-3)GalNAc
# Summary of the method: as §1
binder,measurement,setting,value
B1,glycan array binding signal (z-score),[1],0.634
same,glycan array binding signal (z-score),[2],3.52
same,glycan array binding signal (z-score),[3],0.991
same,glycan array binding signal (z-score),[4],-0.882
same,glycan array binding signal (z-score),[5],0.506
same,glycan array binding signal (z-score),[6],0.751
same,glycan array binding signal (z-score),[7],0.022
same,glycan array binding signal (z-score),[8],-0.678
same,glycan array binding signal (z-score),[9],0.002
same,glycan array binding signal (z-score),[10],-0.179
same,glycan array binding signal (z-score),[11],-0.853
same,glycan array binding signal (z-score),[12],0.045
same,glycan array binding signal (z-score),[13],0.59
same,glycan array binding signal (z-score),[14],-0.883
same,glycan array binding signal (z-score),[15],-0.274
same,glycan array binding signal (z-score),[16],0.435
same,glycan array binding signal (z-score),[17],-0.229
same,glycan array binding signal (z-score),[18],-0.194
same,glycan array binding signal (z-score),[19],-0.416
same,glycan array binding signal (z-score),[20],-0.432
same,glycan array binding signal (z-score),[21],0.159
same,glycan array binding signal (z-score),[22],-0.697
same,glycan array binding signal (z-score),[23],3.03
same,glycan array binding signal (z-score),[24],0.141
same,glycan array binding signal (z-score),[25],0.145
same,glycan array binding signal (z-score),[26],1.4
same,glycan array binding signal (z-score),[27],0.316
same,glycan array binding signal (z-score),[28],-1.08
same,glycan array binding signal (z-score),[29],0.454
same,glycan array binding signal (z-score),[30],1.72
same,glycan array binding signal (z-score),[31],-0.356
same,glycan array binding signal (z-score),[32],-0.52
same,glycan array binding signal (z-score),[33],0.087
same,glycan array binding signal (z-score),[34],-0.716
same,glycan array binding signal (z-score),[35],0.877
same,glycan array binding signal (z-score),[36],0.264
same,glycan array binding signal (z-score),[37],0.039
same,glycan array binding signal (z-score),[38],0.887

# Two entries drawn at random from those above, as already listed:
binder,measurement,setting,value
B1,glycan array binding signal (z-score),[33],0.087
same,glycan array binding signal (z-score),[15],-0.274
